{"source": "patent US20150258050A1", "about": "“METHOD FOR REDUCING TRIGLYCERIDES” (DEAKIN UNIVERSITY, priority 2012, published 2015)", "assay": "Postprandial triacylglycerol concentration in chylomicron-rich fraction after test breakfasts", "format": "in vivo, human", "details": "2 g added to 18 g olive oil, within five hours", "text": "Ten healthy normal weight females between the age of 20 to 30 of took part in a randomized cross over study with three different breakfast meals. […] The baseline values for EPA and DHA proportions in erythrocytes were 1.0±0.1 and 6.7±0.6% (mean±standard error of the mean). Subjects with any form of cardiovascular disease based on self reported medical status and family history were excluded from the study. All subjects provided written informed consent. Ethics approval was obtained from the Deakin University Human Research Ethics Committee (EC2011-023).\nThis was a postprandial study where fasting blood was taken, followed by the consumption of a breakfast containing placebo (olive oil) or active oils (EPA or DPA) and then hourly post prandial blood samples were taken up to 5-hours.\nThe study breakfast consisted of 180 grams of instant mashed potato (Continental Deb™, Unilever, Australasia) mixed with 70 ml boiled water and 20 grams of oil. In each of the three meals 18 grams of lipids consisted of olive oil (La Espanola Pure Olive Oil, Seville, Spain). […]\nTAG concentrations in plasma and the isolated chylomicrons were measured on a Roche Cobas Integra 400 plus autoanalyser (Roche, Lavel, Quebec, Canada) by enzymatic colorimetric method using commercially available kits (TRIGL) as per the manufacturer's instructions (Roche, Lavel, Quebec, Canada).", "note": "At least one structure is not confirmed: it was looked up by name or label, or the drawing left a doubt.", "data": [{"smiles": "CC/C=C\\C/C=C\\C/C=C\\C/C=C\\C/C=C\\CCCC(=O)O", "note": "[EPA, eicosapentaenoic acid, reference compound]", "values": [{"measurement": "Incorporation of fatty acids in chylomicrons", "value": "this effect was not seen"}]}]}
